PubChem BioAssay AID1487 (National Center for Advancing Translational Sciences (NCATS), 2009)
The other results are listed elsewhere or left out. Shown are side measurements of this screen, not its main read-out; they come without a call. Most of these compounds were active or inconclusive in the main read-out, so they are no random draw. The note in brackets gives the kind of curve behind each potency; many fits are weak.

Assay: qHTS Assay for Modulators of Lamin A Splicing
Settings: HeLa LMNA splicing GFP/RFP minigene ratio, 48 h
Summary of the method: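 Read-out is the ratio of GFP to DsRed2 object intensity, acquired by 488 nm laser-scanning cytometry on HeLa lamin A-EGFP minigene reporter cells. Compound incubation 48 hrs at 37 °C in Opti-MEM with 2% FBS; DMSO 0.5% final.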

[1] = measured here: GFP splicing reporter channel
[2] = measured here: RFP viability control channel

Row | SMILES | AC50 [1] | AC50 [2]
1 | O=C(NCCCn1ncc2ccccc21)c1cc(COc2c(F)cccc2F)on1 | 1.41 µM [falling, partial curve] | 0.891 µM [falling, full curve, poor fit]
2 | COc1ccc(-c2cc3nc(-c4ccccc4)cc(N4CCCC(O)C4)n3n2)cc1 (centres undefined) | 14.1 µM [rising, partial curve, poor fit] | 17.8 µM [rising, single point]
3 | CCS(=O)(=O)c1ccc(C(=O)Nc2cccc(Cl)c2)c(Cl)c1Cl | 22.4 µM [rising, single point] | 22.4 µM [rising, single point]
4 | COc1cc(CNc2ccc3[nH]c(=O)[nH]c3c2)cc(Br)c1OCC(=O)NC(C)(C)C |  | 14.1 µM [rising, single point]
5 | CCOC(=O)c1c(C=O)c2sc(C)cc2n1C | 1.41 µM [rising, partial curve, poor fit] | 0.794 µM [rising, partial curve]
6 | CC(NC(=O)NC1CCCCC1)C(c1cccs1)N1CCN(c2ccccc2)CC1 (centres undefined) | 35.5 µM [rising, single point] | 35.5 µM [rising, single point]
7 | CCOc1ccccc1CNC(=O)CN1C(=O)CCCc2ccccc21 | 0.251 µM [rising, partial curve] | 
8 | Cc1ccc(-n2ncc3c(NCCc4ccccc4)ncnc32)cc1C | 15.8 µM [falling, partial curve] | 14.1 µM [falling, partial curve, poor fit]
9 | C[C@]12C=CC(=O)C=C1CCC1C2C(O)C[C@]2(C)C1CC[C@]2(O)C(=O)CO (some centres undefined) | 35.5 µM [falling, single point] | 
10 | COc1ccc(CNC(=O)CCCCCn2c(SCC#N)nc3cc4c(cc3c2=O)OCO4)cc1 | 15.8 µM [rising, single point] | 
11 | O=C(Nc1ccc(Oc2ccccc2)cc1)c1cnc2n(c1=O)CCS2 |  | 3.16 µM [rising, full curve]
12 | O=C(/C=C/c1cccc([N+](=O)[O-])c1)Nn1c(-c2ccccc2F)nc2ccccc2c1=O | 35.5 µM [rising, single point] | 20 µM [rising, single point]
13 | Cc1ccnc(NC(=O)CCC(=O)N(CC(=O)NCc2ccccc2)Cc2ccco2)c1 | 0.398 µM [falling, full curve, poor fit] | 
14 | COc1ccc2cc3cc(C(=O)Nc4ccccc4N4CCN(C)CC4)oc3nc2c1 |  | 35.5 µM [falling, single point]
15 | CC(=O)N1[C@H](C)C=C[C@]1(Cc1ccccc1)C(=O)NCc1cc(F)cc(C(F)(F)F)c1 |  | 10 µM [rising, partial curve, poor fit]
16 | O=C1NC(Cc2c[nH]c3ccccc23)C(=O)N1CCOc1ccc(F)cc1 (centres undefined) | 35.5 µM [rising, single point] | 22.4 µM [rising, single point]
17 | Cc1ccc(-c2csc(NC(=O)/C=C/c3cccs3)n2)cc1C | 11.2 µM [rising, partial curve] | 12.6 µM [rising, partial curve]
18 | O=C(O)Cc1c[nH]c2ccc(O)cc12 | 0.1 µM [falling, full curve] | 
19 | COC(=O)Cc1[nH]nc2c1C(C1C=CCCC1)C(C#N)=C(N)O2 (centres undefined) |  | 8.91 µM [rising, partial curve]
20 | Cc1nnc(NC(=O)C2c3ccccc3Oc3ccccc32)s1 |  | 11.2 µM [rising, partial curve]
21 | Cc1cc(C)n2c(SCc3nnc(-c4cccs4)o3)nnc2n1 |  | 0.251 µM [falling, full curve, poor fit]
22 | COc1ccc(CNC(=O)C(c2ccco2)N(C(=O)CNS(=O)(=O)c2ccccc2)c2ccccc2C)cc1 (centres undefined) | 17.8 µM [rising, single point] | 12.6 µM [rising, single point]
23 | CCc1c(C#N)c(SCCC(=O)Nc2ccc(F)cc2)nc2c1C(=O)CC(C)(C)C2 |  | 25.1 µM [rising, single point]
24 | CC(C)CCn1c(N2CCc3ccccc3C2)nc2c1c(=O)[nH]c(=O)n2C | 0.01 µM [rising, full curve, poor fit] | 2.51 µM [rising, partial curve, poor fit]
25 | CCC1CCCCN1C(=S)Nc1ccc(SC(F)F)cc1 (centres undefined) |  | 22.4 µM [rising, partial curve]
26 | Cc1onc(-c2ccccc2)c1C(=O)OCC(=O)Nc1ccc2c(c1)OCO2 | 7.94 µM [rising, partial curve, poor fit] | 11.2 µM [rising, partial curve]
27 | O=C(c1ccc(-c2ccc([N+](=O)[O-])cc2)o1)N1CCCCC1 |  | 6.31 µM [rising, partial curve, poor fit]

Part of the list above in another layout:
Row,SMILES,AC50 [1],AC50 [2]
4,COc1cc(CNc2ccc3[nH]c(=O)[nH]c3c2)cc(Br)c1OCC(=O)NC(C)(C)C,,"14.1 µM [rising, single point]"
9,C[C@]12C=CC(=O)C=C1CCC1C2C(O)C[C@]2(C)C1CC[C@]2(O)C(=O)CO (some centres undefined),"35.5 µM [falling, single point]",
13,Cc1ccnc(NC(=O)CCC(=O)N(CC(=O)NCc2ccccc2)Cc2ccco2)c1,"0.398 µM [falling, full curve, poor fit]",
27,O=C(c1ccc(-c2ccc([N+](=O)[O-])cc2)o1)N1CCCCC1,,"6.31 µM [rising, partial curve, poor fit]"

(next part)

Row | SMILES | AC50 [1] | AC50 [2]
28 | OCc1nc2ccccc2n1C/C=C/c1ccccc1 | 12.6 µM [rising, single point] | 17.8 µM [rising, single point]
29 | O=C(CSc1nc2ccc(NC(=O)C3CCCCC3)cc2s1)NCC1CCCO1 (centres undefined) | 14.1 µM [rising, single point] | 11.2 µM [rising, partial curve, poor fit]
30 | Cc1ccc(S(=O)(=O)N2CCN(c3ccc([N+](=O)[O-])c4cccnc34)CC2)cc1 |  | 35.5 µM [rising, single point]
31 | COc1ccc([N+](=O)[O-])cc1N(CC(=O)NCCC1=CCCCC1)S(C)(=O)=O | 35.5 µM [rising, single point] | 15.8 µM [rising, single point]
32 | O=C1NCCN(Cc2ccc(-c3ccccc3)cc2)C1CC(=O)N1CCN(CCO)CC1 (centres undefined) |  | 5.01 µM [falling, single point]
33 | NC(=O)c1c(NC(=O)c2ccncc2)sc2c1CCCC2 | 3.55 µM [rising, partial curve] | 
34 | COc1ccccc1N1CCN(C(=O)Cc2c(C(=O)O)[nH]c3ccc(Cl)cc23)CC1 |  | 31.6 µM [falling, partial curve, poor fit]
35 | Cc1ccc(CCN2CC(C(=O)NCCN3CCOCC3)CC2=O)cc1 (centres undefined) | 28.2 µM [falling, single point] | 31.6 µM [falling, partial curve]
36 | COc1ccc(S(=O)(=O)NC(CC(=O)NCC2CCCO2)c2ccco2)cc1 (centres undefined) | 31.6 µM [rising, single point] | 31.6 µM [rising, single point]
37 | CCOC(=O)c1ccc(S(=O)(=O)NC2CCCCCCC2)n1C |  | 14.1 µM [rising, single point]
38 | COc1ccc(C2CC(c3ccccc3)=NN2C(=O)COC(=O)c2cccnc2Cl)cc1 (centres undefined) |  | 22.4 µM [rising, single point]
39 | O=C(NNc1nc(-c2ccccc2)cs1)c1ccco1 | 35.5 µM [rising, single point] | 25.1 µM [rising, single point]
40 | O=C(/C=C/c1ccco1)OCC1CCCN2CCCCC12 (centres undefined) | 0.158 µM [falling, partial curve, poor fit] | 0.398 µM [falling, full curve]
41 | COc1ccc(CNCC(O)(c2ccc(Cl)cc2)c2ccc(Cl)cc2)cc1OC | 22.4 µM [falling, single point] | 25.1 µM [falling, single point]
42 | O=C(CSc1ccc2ccccc2n1)NCCC1=CCCCC1 |  | 35.5 µM [rising, single point]
43 | CC(C)(C)OC(=O)N1CCC(c2c(C(=O)Nc3ccc4c(c3)OCCO4)cnn2-c2ccc(F)cc2)CC1 |  | 2.82 µM [falling, partial curve, poor fit]
44 | COc1ccc(OC)c(NCc2cccn2-c2nnc(N3CCC(C)CC3)s2)c1 |  | 2.51 µM [rising, full curve]
45 | CCN(CC)S(=O)(=O)c1ccc(OCC(=O)NCc2ccccc2)cc1 | 10 µM [rising, partial curve] | 
46 | CCCOc1ccc(S(=O)(=O)NCc2ccc(OC)cc2)cc1 |  | 14.1 µM [rising, partial curve]
47 | Cc1ccc(Cl)cc1Nc1nc(-c2sc(NC(=O)c3cccc(Cl)c3)nc2C)cs1 | 35.5 µM [falling, single point] | 15.8 µM [falling, single point]
48 | O=C(Cc1ccccc1)N/N=C/c1ccc([N+](=O)[O-])s1 | 22.4 µM [falling, single point] | 20 µM [falling, partial curve]
49 | O=C(Nc1nccs1)c1ccc(COc2ccccc2Cl)o1 | 0.00447 µM [falling, full curve, poor fit] | 0.00316 µM [falling, full curve, poor fit]
50 | COc1ccccc1N1CCN(C(=O)c2nc(-c3ccc(C)cc3)n3c2CCCCC3)CC1 | 35.5 µM [falling, single point] | 
51 | O=C(c1cc2c(s1)-c1ccccc1OC2)N1CCc2ccccc2C1 | 11.2 µM [rising, partial curve] | 15.8 µM [rising, partial curve]
52 | O=S(=O)(c1ccc(Cl)c(NC(=S)N/N=C/c2ccc(O)cc2)c1)N1CCOCC1 | 6.31 µM [rising, partial curve] | 35.5 µM [rising, partial curve]
53 | O=C(CN1C2=NCCCN2c2ccccc21)c1ccc(Cl)cc1Cl | 11.2 µM [rising, partial curve, poor fit] | 14.1 µM [rising, partial curve, poor fit]
